Reference: PubChem BioAssay AID602196 (INSERM, 2012)

Test: 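Genes whose knock-down alters cisplatin killing of lung cancer cells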
System: human A549 lung cancer cells
Reagents: siRNA pair against human genes
Time to read-out: 48 h transfection before cisplatin; time from cisplatin to read-out not stated
Treatment: cisplatin at a dose killing half of control-siRNA cells; exact dose and duration not given
Read-out: 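Cisplatin cell death as a shift from the 50% death seen with control siRNA; siRNAs toxic or growth-blocking alone scored 0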
Scale: two-siRNA summed score (-2 to +2): higher = both siRNAs protect from cisplatin killing; -2 means both sensitise; mean protection from cisplatin (shift in death) and protection from cisplatin (shift in death), siRNA C and protection from cisplatin (shift in death), siRNA D: higher = protection from cisplatin killing
Hit rule: 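Each siRNA scores 0 if harmful alone by LDH or WST-1, otherwise +1 if it reduces and -1 if it increases cisplatin killing; a gene is active when both siRNAs agree (sum +2 or -2)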
Meaning of the calls: active = both siRNAs shift cisplatin killing the same way; inactive = no consistent shift, or siRNA harmful alone
Here is a random part of about 23,000 reagents. In the full data, 455 (2%) got an active call. 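Active includes both protection and sensitisation; some change values fall well beyond the stated -50 to +50 range.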 Reagent sequences are not shown. The record does not give: the amount of reagent.

no.	Target gene	PubChem SID	two-siRNA summed score (-2 to +2)	mean protection from cisplatin (shift in death) (%)	protection from cisplatin (shift in death), siRNA C (%)	protection from cisplatin (shift in death), siRNA D (%)	Call
1	MRGPRE	SID131504196	0	-6.2	-6.7	-5.6	inactive
2	LINC01164	SID131518353	0	18.6	12.9	24.3	inactive
3	DTX1	SID131504321	0	-5.7	-16.4	5	inactive
4	SPOCK3	SID131512252	0	5.3	6.4	4.1	inactive
5	RIC8A	SID131514379	0	7.7	7.2	8.3	inactive
6	MAN2A2	SID131511238	0	4.1	15.2	-6.9	inactive
7	HTR5A	SID131520600	1	10.4	14.5	6.3	inactive
8	COL9A3	SID131506151	0	-2	-0.5	-3.4	inactive
9	BHLHE41	SID131507899	0	0.4	-0.9	1.7	inactive
10	LOC400526	SID131511034	0	3.9	12.8	-5	inactive

No new results follow: entries from further up.
no.	Target gene	PubChem SID	two-siRNA summed score (-2 to +2)	mean protection from cisplatin (shift in death) (%)	protection from cisplatin (shift in death), siRNA C (%)	protection from cisplatin (shift in death), siRNA D (%)	Call
9	BHLHE41	SID131507899	0	0.4	-0.9	1.7	inactive
10	LOC400526	SID131511034	0	3.9	12.8	-5	inactive

Next entries:
no.	Target gene	PubChem SID	two-siRNA summed score (-2 to +2)	mean protection from cisplatin (shift in death) (%)	protection from cisplatin (shift in death), siRNA C (%)	protection from cisplatin (shift in death), siRNA D (%)	Call
11	LOC149934	SID131512712	0	5.8	15.9	-4.3	inactive
12	EGFLAM	SID131519417	1	5.4	2.3	8.6	inactive
13	LOC440889	SID131517315	0	13	14.7	11.4	inactive
14	LOC441002	SID131516638	0	11.3	12.9	9.6	inactive
15	CHKB	SID131507701	0	0.2	7.5	-7.2	inactive
16	SELP	SID131513062	0	6.2	13	-0.7	inactive
17	OR1J2	SID131501651	-1	-8.4	0.8	-17.6	inactive
18	DIS3L	SID131511762	0	4.7	7	2.4	inactive
19	GYG1	SID131518930	1	-3.5	-19.2	12.1	inactive
20	LOC388001	SID131514389	0	7.7	15.6	-0.1	inactive
21	IL17RE	SID131515544	0	9.3	14.2	4.5	inactive
22	LOC440482	SID131508294	0	0.9	-1.4	3.2	inactive
23	COL9A2	SID131507954	0	0.5	-2.7	3.6	inactive
